From paper PMC5177663 (Frontiers in Pharmacology, 2016)

Assay: pharmacokinetics study, plasma concentrations by LC/MS-MS
Conditions: middle-aged mice
Procedure: The sampling times are 30 min, 1, 2, 4, and 6 h. In each mouse, two time points of blood sampling were performed. Plasma was extracted from the blood sample by centrifugation (+4°C, 3000 g, 10 min) and stored at -80°C. Then, plasma samples were sent in dry ice to MDS (MDS Pharma Services, Switzerland) for the pharmacokinetic analysis.

Compound: COc1cc2c(cc1OC)C(=O)C(CC1CCN(Cc3ccccc3)CC1)C2 (centres unmarked) [Donepezil, reference compound]
- maximal plasma concentrations with versus without co-administration of S 38093 (Donepezil 0.3 mg/kg): similar
- plasma exposure when administered as a combination (combination versus compound alone): no increase
